The subject of experiment [1] is E-200 Pfeiffer cells. The experiment is described as follows: Viability assay, EPZ-6438-resistant E-200 Pfeiffer cells. The class given is cell-based. Particulars: Homo sapiens, read-out: IC50 cell viability.
The subject of experiment [2] is H3K27me3 in Pfeiffer cells (Parental). The experiment is described as follows: Cellular H3K27me3 AlphaLISA, parental Pfeiffer cells. The experiment is classed as cell-based. Conditions: Homo sapiens, Figure 3B. How it is done:
Cells were plated at 500 cells/well in 10% DMEM, 50 uL/well in 384 well plates. […] DMSO (0.1%) was used as a vehicle control. Plates were incubated for 72 hours at 37°C. […] Plates were read using AlphaLISA protocol on Envision (Perkin Elmer).
(In general: In Alpha technology, singlet oxygen from a donor bead excites a nearby acceptor bead.)

The subject of experiment [3] is G401 cells (Parental). The experiment is described as follows: cells. Conditions: Homo sapiens, G-401, read-out: IC50 cell viability.
Experiment [4] deals with H3K27me3 in E-200 Pfeiffer cells. The experiment is described as follows: Cellular H3K27me3 AlphaLISA, E-200 Pfeiffer cells. The class given is cell-based. Conditions: Homo sapiens; Pfeiffer E-200; Figure 3B. How it is done:
Cells were plated at 500 cells/well in 10% DMEM, 50 uL/well in 384 well plates. […] DMSO (0.1%) was used as a vehicle control. Plates were incubated for 72 hours at 37°C. […] Plates were read using AlphaLISA protocol on Envision (Perkin Elmer). […] Pfeiffer cells were treated overnight with 100 μg/mL of N-ethyl-N-nitrosourea (ENU; Sigma Aldrich, St. […] After 7 days, cells were dosed again with fresh compound and grown until outgrowth (3 to 4 weeks). EZH2 cDNA from outgrown cells was amplified by RT-PCR using Transcriptor High Fidelity cDNA Synthesis Kit (Roche, 05081955001) and submitted for NGS. Ion semiconductor sequencing (Ion Torrent) and single molecule real time sequencing (PacBio) were performed at Molecular MD and Expression analysis (Quintiles), respectively.

Experiment [5] deals with Pfeiffer cells (Parental). The experiment is described as follows: Viability assay (Cell-Titer-Glo, 6 days), parental Pfeiffer cells. The experiment is classed as cell-based. Conditions: Homo sapiens.
The subject of experiment [6] is E-100 Pfeiffer cells. The experiment is described as follows: Viability assay, EPZ-6438-resistant E-100 Pfeiffer cells. The experiment is classed as cell-based. Particulars: Homo sapiens, read-out: IC50 cell viability.

Where two headings read alike, the source gives them in different places.

The source of these data is publication PMC4741719, “Acquisition of a single EZH2 D1 domain mutation confers acquired resistance to EZH2-targeted inhibitors” (Oncotarget, 2015).

As to `CCN(c1cc(-c2ccc(CN3CCOCC3)cc2)cc(C(=O)NCc2c(C)cc(C)[nH]c2=O)c1C)C1CCOCC1` [EPZ-6438], the half-maximal inhibitory concentration (IC50) – broadly, the concentration that gives 50% inhibition – in experiment [1] (E-200, Unwash, Figure 1E) was greater than 10000 nM; in experiment [1] (E-200, Wash 8 weeks (drug withdrawal), Figure 1E), greater than 10000 nM; in experiment [1] (E-200 Pfeiffer, Figure 1C), greater than 10000 nM; in experiment [2], 11 ± 3 nM; in experiment [3] it was 1030 ± 172 nM; in experiment [4] it was greater than 10000 nM. Besides, the IC50 is 7 ± 1 nM in experiment [5] (Parental Pfeiffer, Figure 1C, three independent experiments); 9 ± 3 nM in experiment [5] (Pfeiffer Parental, Figure 4B); greater than 10000 nM in experiment [6] (E-100, Unwash, Figure 1E); greater than 10000 nM in experiment [6] (E-100, Wash 8 weeks (drug withdrawal), Figure 1E); greater than 10000 nM in experiment [6] (E-100 Pfeiffer, Figure 1C).
